PubChem BioAssay AID1259308 | NCATS, 2017

Assay: 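Candidate targets for better recombinant protein yield in mammalian cells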 (primary screen)
Cell system: human HEK293 embryonic kidney cells stably expressing firefly luciferase (HEK-CMV-Luc2-Hygro)
Reagent: single siRNA against human genes, 0.8 pmol siRNA per well
Time to read-out: 72 h
Measured: 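Reporter luminescence and viable-cell signal on separate replicate plates, given as percent of non-targeting control and median/MAD z-scores, plus per-cell luciferase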
Scale: total luciferase, z-score: higher = more reporter protein produced
Hit rule: 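An siRNA counts as active if its total luciferase robust z-score exceeds 3; genes with two or more such siRNAs out of three were retested with fresh siRNAs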
Meaning of the calls: active = raised luciferase; inactive = no rise
In all, the deposit lists about 59,000 reagents; this is an unselected part. In the full data, about 1,510 (2.6%) were called active. 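Calls use total luciferase alone and ignore viability, so some active siRNAs may act by altering cell number.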 Reagents against one gene are numbered here. Not all columns of the deposit are shown.

total luciferase, z-score, by gene and reagent
CAVIN1: #1 2.13 inactive; #2 0.563 inactive; #3 0.546 inactive
FAM131A: #1 0.101 inactive; #2 -0.637 inactive; #3 -0.505 inactive
RHOA: #1 -1.34 inactive; #2 -0.164 inactive; #3 0.0962 inactive
CSK: #1 0.177 inactive; #2 -0.074 inactive; #3 2.23 inactive
TCEAL8: #1 -0.662 inactive; #2 0.487 inactive; #3 -1.23 inactive

Individual results from above:
Result for CSK #3 in “Outcome”: inactive
For “total luciferase, z-score”, CSK #2 has -0.074

Continued.
total luciferase, z-score, by gene and reagent
DLG4: #1 -0.173 inactive; #2 0.272 inactive; #3 -0.688 inactive
ODF1: #1 0.699 inactive; #2 2.64 inactive; #3 0.23 inactive
HOXC13: #1 2.75 inactive; #2 -0.0756 inactive; #3 4.83 active
